The text below walks through data of PubChem BioAssay AID1487 (National Center for Advancing Translational Sciences (NCATS), 2009).

One may read the AC50 as the concentration at which the activity in the assay is half-maximal.

This experiment in a line: qHTS Assay for Modulators of Lamin A Splicing. The note with it: HeLa LMNA splicing GFP/RFP minigene ratio, 48 h. A digest of the protocol:
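S3 HeLa stable clones carrying a lamin A-EGFP splicing minigene plus DsRed2 were seeded at 600 cells/well in Opti-MEM with 2% FBS, pin-dosed and incubated 48 h at 37°C. Acumen cytometry (488 nm) gave the GFP/RFP total-intensity ratio.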
A general note: In qHTS, concentration-response curves come from the screen itself.

[1] abbreviates: measured here: GFP splicing reporter channel.
Setting [2] is: measured here: RFP viability control channel.

Values joined by “and” are separate entries in the source; they are usually repeats but may differ in a detail not shown here. Identical values can stand only once. Some of the results follow. Further columns of the screen follow, without active or inactive calls. Most of these compounds were active or inconclusive in the main read-out, so they are no random draw. The note in brackets gives the kind of curve behind each potency; many fits are weak.

Turning to `Cc1ccc2nc(NC(=O)Cc3cccs3)sc2c1`, the AC50 under setting [1] is 22.4 µM [rising, single point] and the AC50 under setting [2] was 31.6 µM [rising, single point].

`Cc1cccc(N2CCN(C(=O)C(Cc3ccccc3)n3cccc3)CC2)c1C` (configuration not stated): under setting [2], the AC50 is 12.6 µM [rising, partial curve, poor fit]. As to `CN(C)c1nc(-c2cccc(C#N)c2)nc2ccccc12`, the AC50 under setting [2] was 22.4 µM [falling, single point]. As to `COC(=O)c1cc(=O)n(Cc2ccc(OC)c(OC)c2)c(=Nc2ccc(F)cc2)s1`, the AC50 was 25.1 µM [falling, single point] under setting [1] and 31.6 µM [falling, single point] under setting [2].

Consider `Nc1[nH]c(=S)nc2nc(-c3ccccc3)c(-c3ccccc3)nc12`, for which the AC50 under setting [1] was 0.794 µM [rising, full curve, poor fit]. Turning to `CC1(C)CC(=O)C2=C(C1)OC1=C(C(=O)CC(C)(C)C1)C2c1ccc(O)cc1O`, the AC50 under setting [2] was 2.82 µM [rising, full curve, poor fit]. On to `COc1ccc(O)c(C(=O)CC(=O)c2ccccc2)c1`, for which the AC50 was 11.2 µM [rising, partial curve, poor fit] under setting [1] and 12.6 µM [rising, single point] under setting [2].

Regarding `O=C(CC(=O)N/N=C\c1cccc(Cl)c1Cl)NCc1ccccc1`, the AC50 by setting is: under setting [1], 14.1 µM [rising, single point]; under setting [2], 12.6 µM [rising, partial curve].

`O=c1c2c(-c3ccccc3)csc2nc2c3ccccc3c(NCCN3CCOCC3)nn12`: the AC50 under setting [2] is 3.16 µM [falling, partial curve].

With `O=C(Nc1ccccc1N1CCOCC1)c1ccccc1NS(=O)(=O)c1ccc(F)c(F)c1`, the AC50 under setting [2] is 31.6 µM [rising, single point]. Take `Cc1ccc(C(C(=O)NC2CCCC2)N(Cc2ccc(F)cc2)C(=O)c2csnn2)o1` (configuration not stated): the AC50 is 17.8 µM [rising, single point] under setting [1] and 15.8 µM [rising, single point] under setting [2]. `COc1ccc(OC)c(S(=O)(=O)N2CCC(C(=O)N3CCOCC3)CC2)c1`: the AC50 under setting [2] is 0.0316 µM [falling, full curve, poor fit]. On to `Cc1ccc(C2CC2C(=O)NNC(=S)Nc2ccc(Cl)cc2)cc1` (configuration not stated), for which the AC50 under setting [2] was 14.1 µM [rising, single point]. On to `CCOC(=O)c1cccc(NS(=O)(=O)c2cc(-c3cnc(C4CC4)o3)ccc2C)c1`, for which the AC50 runs as follows: under setting [1], 7.94 µM [falling, partial curve]; under setting [2], 7.08 µM [falling, partial curve]. As for `CC1CC(=O)C2=C(C1)Nc1ccccc1SC2c1ccc(F)cc1` (configuration not stated), the AC50 runs as follows: under setting [1], 8.91 µM [rising, partial curve]; under setting [2], 17.8 µM [rising, partial curve]. Take `CCC(=O)NNC(=O)CCC(=O)Nc1ccc(C)cc1C`: the AC50 reads like this: under setting [1], 0.0631 µM [falling, full curve]; under setting [2], 0.0631 µM [falling, full curve, poor fit].

As for `O=C(c1ccc(Cl)cc1)c1c[nH]c(C(=O)NNc2ccccc2)c1`, under setting [2], the AC50 is 0.141 µM [rising, full curve].

Regarding `CCC(c1nnnn1Cc1cccs1)N1CCN(c2nc3ccccc3s2)CC1` (configuration not stated), the AC50 is 14.1 µM [rising, single point] under setting [1] and 28.2 µM [rising, single point] under setting [2]. On to `O=C(Nc1ccc2c(c1)CCCN2C(=O)c1cccs1)c1ccccc1`, for which, under setting [1], the AC50 is 35.5 µM [falling, single point]. `COc1cc(-c2nnc(-c3ccncc3)o2)ccc1OCc1ccccc1`: the AC50 was 20 µM [rising, single point] under setting [1] and 14.1 µM [rising, partial curve, poor fit] under setting [2].

`COc1cc(S(=O)(=O)N2CCN(c3ccccc3F)CC2)ccc1Cl`: the AC50 under setting [2] was 31.6 µM [rising, single point]. For `COc1ccc(Cl)cc1NC(=O)COC(=O)C(CC(C)C)N1C(=O)C2CC=CCC2C1=O` (configuration not stated), the AC50 under setting [2] was 0.0178 µM [rising, full curve, poor fit]. For the compound `O=C(NNC(=S)Nc1ccc(OC(F)F)cc1)c1cc2c(s1)CCCC2`, the half-maximal activity concentration (AC50) under setting [2] was 15.8 µM [rising, single point]. In the case of `CCC1CCc2c([nH]c3ccccc3c2=O)O1` (configuration not stated), the AC50 reads like this: under setting [1], 11.2 µM [rising, partial curve, poor fit]; under setting [2], 35.5 µM [rising, single point]. With `Cc1c(C(=O)C(=O)N2c3ccc(F)cc3CCC2C)c2ccccc2n1C` (configuration not stated), the AC50 under setting [2] is 5.62 µM [rising, single point]. Consider `Cc1nc(N2CCCC2)c2c(C(=O)Nc3cccc(Cl)c3)c(C)oc2n1`, for which, under setting [2], the AC50 was 35.5 µM [falling, single point]. In the case of `CCOc1ccc(NC(=O)Cn2ccn3nc(-c4ccc(OC)c(OC)c4)cc3c2=O)cc1`, under setting [2], the AC50 is 0.00355 µM [falling, full curve, poor fit].

For `Cc1cc(C)cc(NC(=O)Nc2ccc3nc(N4CCN(C)CC4)cc(C)c3c2)c1`, the AC50 is, setting by setting: under setting [1], 35.5 µM [falling, partial curve, poor fit]; under setting [2], 0.0355 µM [falling, full curve, poor fit].

Turning to `COC(=O)C1CCN(C(c2cccs2)c2sc3nc(C)nn3c2O)CC1` (configuration not stated), the AC50 under setting [1] was 35.5 µM [falling, single point] and the AC50 under setting [2] was 35.5 µM [falling, single point]. As for `COc1ccc(COC(=O)c2n[nH]c3ccccc23)cc1F`, under setting [2], the AC50 is 15.8 µM [rising, partial curve].

Take `COc1ccc(NC(=O)COC(=O)c2c3c(nc4ccccc24)CCCC3)cc1Cl`: the AC50 runs as follows: under setting [1], 20 µM [rising, partial curve, poor fit]; under setting [2], 11.2 µM [rising, partial curve]. As for `NC(=O)c1nsc(C(=O)N(CC(=O)NCc2ccc3c(c2)OCO3)C2CCCCC2)c1N`, under setting [1], the AC50 is 0.0251 µM [falling, full curve, poor fit].

In the case of `O=C(CSc1cnc2ccccc2n1)c1ccc(F)cc1`, the AC50 under setting [1] is 12.6 µM [rising, partial curve] and the AC50 under setting [2] is 17.8 µM [rising, single point].

In the case of `O=C(COc1ccc(F)cc1)NCC(c1ccc(Cl)cc1)N1CCCCC1` (configuration not stated), the AC50 is 22.4 µM [falling, single point] under setting [1] and 1.12 µM [falling, partial curve] under setting [2]. Consider `COc1cccc(C(=O)NC2CCN(C(=O)N3c4ccccc4Sc4ccccc43)CC2)c1`, for which the AC50 under setting [1] was 14.1 µM [rising, partial curve, poor fit] and the AC50 under setting [2] is 11.2 µM [rising, partial curve]. For `CC1(C)Cc2c(C#N)c(SCCOc3ccccc3)nc(N3CCOCC3)c2CO1`, the AC50 under setting [2] was 31.6 µM [rising, single point].

As for `CCc1ccc2[nH]c(=O)c(C(c3nnnn3CCOC)N3CCN(c4ccccc4F)CC3)cc2c1` (configuration not stated), the AC50 under setting [1] was 25.1 µM [falling, single point]. Take `O=c1cc(-c2ccc([N+](=O)[O-])cc2)c2ccc(O)cc2o1`: the AC50 runs as follows: under setting [1], 5.01 µM [falling, full curve, poor fit]; under setting [2], 0.562 µM [falling, full curve, poor fit].

In the case of `O=C(O)c1ccc(OCCn2ccnc2)cc1`, the AC50 was 0.00794 µM [falling, full curve, poor fit] under setting [1] and 3.55 µM [falling, partial curve] under setting [2].

`COc1cc(OC)c(-c2cc(C(=O)NCc3ccc(F)cc3)c3c(-c4ccccc4)[nH]nc3n2)cc1OC`: the AC50 was 1.26 µM [falling, partial curve] under setting [1] and 5.62 µM [falling, partial curve] under setting [2].

In the case of `CCCn1c2c(c(O)c(C(=O)Nc3nccs3)c1=O)CCCC2`, the AC50 under setting [2] was 22.4 µM [rising, partial curve, poor fit]. `Cc1nnc(SCC(=O)N2CCN(c3ccccc3)CC2)n(N)c1=O`: the AC50 is, setting by setting: under setting [1], 5.62 µM [falling, single point]; under setting [2], 6.31 µM [falling, single point]. As for `CCCCN(CCCC)CCC(O)c1cc2c(Cl)cc(Cl)cc2c2cc(C(F)(F)F)ccc12` (configuration not stated), under setting [2], the AC50 was 7.08 µM [falling, partial curve, poor fit]. Consider `C#C[C@]1(O)CC[C@H]2[C@@H]3CCc4cc(O)ccc4[C@H]3CC[C@@]21C`, for which the AC50 is 4.47 µM [rising, partial curve, poor fit] and 6.31 µM [falling, single point] under setting [1]; 20 µM [falling, single point] under setting [2].

Consider `COc1cc(OC)cc(C(=O)NC2CCN(Cc3nnnn3Cc3ccc(F)cc3)CC2)c1`, for which, under setting [2], the AC50 is 1.41 µM [falling, partial curve, poor fit]. Take `Cc1ccc(S(=O)(=O)Nc2cc(C(C)C)c(O)cc2C)cc1`: the AC50 was 12.6 µM [rising, partial curve] under setting [1] and 11.2 µM [rising, partial curve] under setting [2]. Consider `CC(C)CCNC(=O)c1cc(-c2ccncc2)nc2ccc(S(=O)(=O)N3CCOCC3)cc12`, for which the AC50 under setting [2] was 0.0316 µM [falling, full curve, poor fit]. On to `Cc1ccc(F)cc1NC(=O)c1cccc2nccnc12`, for which the AC50 under setting [2] is 0.891 µM [rising, full curve]. Take `Cc1nn(C)c(C)c1S(=O)(=O)N1CCc2ccccc21`: the AC50 under setting [1] was 35.5 µM [rising, single point]. On to `Cc1ccc(-c2nnc(SCC(=O)N3CCOCC3)nc2-c2ccc(C)cc2)cc1`, for which the AC50 under setting [2] was 1.12 µM [falling, full curve].

As for `CCc1ccc(-c2nn(-c3ccccc3)cc2C2SCC(=O)N2Cc2ccco2)cc1` (configuration not stated), the AC50 under setting [2] is 31.6 µM [rising, single point].

Regarding `O=C(NCc1ccc(Cl)cc1)c1ccccc1CCc1ccccc1`, the AC50 under setting [2] is 5.62 µM [rising, partial curve, poor fit]. Turning to `Oc1cccc(/C=N/Nc2cccc3cccnc23)c1`, the AC50 reads like this: under setting [1], 3.16 µM [falling, single point]; under setting [2], 3.16 µM [falling, partial curve, poor fit].
